PubChem BioAssay AID504847 (National Center for Advancing Translational Sciences (NCATS), 2011)
Out of some 400,000 compounds screened, about 3,700 (0.93%) were called active. Inconclusive means that the source gave no clear call. Such entries were picked first, then a sample of the others. Calls come from the whole dose curve; as a rule, active = well fitted inhibition curve with a large enough effect; inconclusive = small, poorly fitted or top-dose-only effect, or another doubt; inactive = no such curve, though single readings can be large or run the other way. A potency beside an inconclusive call is a rough fit, not a confirmed value.

Sequences of proteins named here, by UniProt entry; tags and fusion partners are left off. A change or cut given only in a name is not applied to a line headed by its entry.
UniProt P11473: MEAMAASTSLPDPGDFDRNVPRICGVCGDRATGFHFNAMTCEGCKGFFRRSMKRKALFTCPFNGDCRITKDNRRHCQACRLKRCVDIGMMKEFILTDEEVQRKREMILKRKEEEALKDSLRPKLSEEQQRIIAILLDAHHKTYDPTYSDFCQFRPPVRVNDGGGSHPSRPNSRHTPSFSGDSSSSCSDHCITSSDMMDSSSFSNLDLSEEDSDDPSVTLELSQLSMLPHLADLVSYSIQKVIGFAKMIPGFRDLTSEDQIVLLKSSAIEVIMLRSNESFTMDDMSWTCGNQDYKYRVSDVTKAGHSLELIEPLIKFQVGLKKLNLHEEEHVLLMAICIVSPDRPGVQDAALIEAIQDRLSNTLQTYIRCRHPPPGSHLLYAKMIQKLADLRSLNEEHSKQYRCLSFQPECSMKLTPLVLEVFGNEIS

Target: Vitamin D3 receptor (Homo sapiens) (UniProt P11473)
Test: Inhibitors of the vitamin D receptor (VDR): qHTS
Details: VDR-SRC2-3 peptide fluorescence polarization, 2 h; max response, negative = inhibition: active compounds read low
Procedure, shortened: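 After 23 nl compound addition and a short centrifugation, plates sat for 2 hours at ambient temperature; polarization of fluorescence then indicated loss of VDR binding to peptide SRC2-3.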
% is set by controls: 0 for no effect and ±100 for the full control effect; potency is the fitted concentration of half-maximal effect.

| SMILES | Potency | max response, negative = inhibition |
| --- | --- | --- |
| CCc1ccc2[nH]c(=O)c(-c3ccccc3)c(O)c2c1 | inconclusive: 89.1 µM [inhibitor, partial curve, poor fit] | – |
| O=C(NC1CCCCCC1)C(=S)NCc1ccccc1 | inconclusive: 56.2 µM [inhibitor, single point] | – |
| C#CCOCCOCCOCCNc1nc(N2CCN(C(=O)[C@H](CCCCN)n3cc(CCCC)nn3)CC2)nc(N2CCN(C(=O)[C@H](CCCCN)n3cc(CCCC)nn3)CC2)n1 | – | inactive: -8.09% |
| CC(=O)Nc1sc2c(c1C(N)=O)CCCC2 | – | inactive: 4.15% |
| CN(C)c1ccc(/C=C2\C(=O)Nc3ccccc32)cc1 | inconclusive: 89.1 µM [inhibitor, partial curve, poor fit] | – |
| N#C/C(=C/c1ccc(OCc2ccc(C(=O)O)cc2)cc1)C(=O)Nc1ccccc1 | inconclusive: 50.1 µM [inhibitor, partial curve] | – |
| COc1ccc(C(=O)NCc2ccncc2)cc1S(=O)(=O)N1CCOCC1 | inconclusive: 79.4 µM [inhibitor, single point] | – |
| O=C(O)[C@H](Cc1ccccc1)N1C(=O)c2c(Cl)c(Cl)c(Cl)c(Cl)c2C1=O | inconclusive: 63.1 µM [inhibitor, partial curve, poor fit] | – |
| Cc1ccc(S(=O)(=O)N2CCN(C(=O)CN3C(=O)NC4(CCOc5ccccc54)C3=O)CC2)cc1 (stereo not given) | – | inactive: 6.83% |
| CCc1nn2c(=O)cc(COC(=O)c3ccccc3NC(=O)c3cccs3)nc2s1 | – | inactive: 12.2% |
| Fc1ccccc1Nc1ncnc2c1nc1n2CCCCC1 | – | inactive: -1.14% |
| CCc1nnc(NC(=O)CN2C(=O)/C(=C/c3cc(OC)c(OC)c(OC)c3)SC2=S)s1 | inconclusive: 50.1 µM [inhibitor, partial curve, poor fit] | – |
| CC(C)c1ccc(S(=O)(=O)c2cc3cc(Br)ccc3oc2=O)cc1 | – | inactive: 0.821% |
| CS(=O)(=O)Nc1cccc(-c2nccc(Nc3ccc(F)cc3)n2)c1 | inconclusive: 50.1 µM [inhibitor, partial curve, poor fit] | – |
| Cc1nnc(Sc2cc(NCCCO)c([N+](=O)[O-])c3nonc23)s1 | active: 44.7 µM | – |
| CCCCCCN(C(=O)CCCN1C(=O)NC(c2ccc(-c3ccccc3)cc2)C(C(=O)OCc2ccccc2)=C1C)C(C)C(=O)NCCCC (stereo not given) | – | inactive: -18% |
| NC(=S)Cc1nc(-c2ccccc2)cs1 | inconclusive: 79.4 µM [inhibitor, partial curve, poor fit] | – |
| CCN(C(=O)CSc1nc2ccccc2n1CC(=O)N1CCCC(C)C1)c1ccccc1 (stereo not given) | – | inactive: 6.42% |
| Cn1c(=O)c(=O)n(C)c2cc(S(=O)(=O)Nc3ccc(Cl)c(C(F)(F)F)c3)ccc21 | – | inactive: -7.19% |
| COc1cccc(NC(=S)/C(=C(\[O-])c2ccc([N+](=O)[O-])cc2)[n+]2ccccc2)c1 | inconclusive: 25.1 µM [inhibitor, partial curve] | – |
| Cc1cc(Cl)ccc1NNC(=O)c1cccs1 | inconclusive: 56.2 µM [inhibitor, partial curve, poor fit] | – |
| O=C(NC1CCCCC1)C(=S)NCCc1ccccc1 | inconclusive: 100 µM [inhibitor, single point] | – |

| SMILES | Potency | max response, negative = inhibition |
| --- | --- | --- |
| COc1cc(OC)c(NC(=O)CCNS(=O)(=O)c2ccc3c(c2)CC(C)N3C(C)=O)cc1Cl (stereo not given) | – | inactive: 2.07% |
| Nc1[nH]n(-c2ccccc2)c(=O)c1N=Nc1ccc2c(c1)OCO2 | inconclusive: 100 µM [inhibitor, single point] | – |
| Cc1ccc(N=C2C(=S)N(c3ccc(C)cc3)C(=N)N2/N=C/c2ccc(Cl)cc2)cc1 | inconclusive: 3.16 µM [inhibitor, full curve, poor fit] | – |
| COc1cc2c(cc1OC)C1N(CC2)C(=O)CCC12C(=O)CCCC2=O (stereo not given) | active: 70.8 µM | – |
| CCc1ccccc1Nc1cc(C(=O)NCCCN(C)C2CCCCC2)c2ccccc2n1 | – | inactive: -3.77% |
| CC1=C(SCc2ccccc2)C(=O)c2ccccc2C1=O | active: 14.1 µM | – |
| CCN(CC)C(=O)c1sc2nc(-c3cccs3)cc(-c3ccc(Cl)cc3)c2c1N | inconclusive: 89.1 µM [inhibitor, single point] | – |
| Cc1cc(Cl)ccc1NNC(N)=S | inconclusive: 44.7 µM [inhibitor, partial curve, poor fit] | – |
| S=C(NCc1ccccn1)Nc1ccccc1 | – | inactive: -11.1% |
| COC(C/C=C/C(=O)[C@@H](C)OCc1ccccc1)OC | inconclusive: 56.2 µM [inhibitor, partial curve, poor fit] | – |
| COc1cc2c(=O)n(CC3CCCO3)c(=O)n(CC(=O)Nc3ccccc3)c2cc1OC (stereo not given) | inconclusive: 89.1 µM [inhibitor, partial curve, poor fit] | – |
| COCCNC(=O)c1ccc2c(c1)N(Cc1c(F)cccc1Cl)C(=O)c1ccccc1S2 | inconclusive: 63.1 µM [inhibitor, partial curve, poor fit] | – |
| CC(=O)Nc1sc(N/N=C\c2ccccc2Cl)nc1-c1cccs1 | inconclusive: 70.8 µM [inhibitor, partial curve, poor fit] | – |
| O=C(Nc1nonc1-c1ccc(Cl)cc1)c1ccco1 | inconclusive: 100 µM [inhibitor, single point] | – |
| Cc1cccc(C(=O)Nc2nnc(-c3ccc(C(C)(C)C)cc3)s2)c1 | inconclusive: 0.891 µM [inhibitor, full curve, poor fit] | – |
| C=CCNC(=S)N/N=C/c1ccc(N(CC)Cc2ccccc2)cc1 | – | inactive: -7.96% |
| CCOC(=O)C(=CNNc1cccc(Cl)c1)C(=O)OCC | inconclusive: 56.2 µM [inhibitor, partial curve, poor fit] | – |
| COc1cc(NC(=O)c2nccnc2C(=O)O)cc(OC)c1 | – | inactive: -5.03% |
| COc1ccc(NC(=O)CC2C(=O)N(c3ccc(C)cc3)C(=O)N2Cc2ccc(C)cc2)cc1 (stereo not given) | inconclusive: 89.1 µM [inhibitor, single point] | – |
| N#Cc1nc(COc2ccc(F)cc2)oc1NCCN1CCOCC1 | – | inactive: -2.79% |
| CN1C/C(=C/c2ccccc2[N+](=O)[O-])C(=O)/C(=C\c2ccccc2[N+](=O)[O-])C1 | active: 70.8 µM | – |
| CC[C@]12c3[nH]c4cc(CCC(=O)N(C)C)ccc4c3CCN1C(=O)[C@@H](CC(=O)NC(C)(C)C)C[C@@H]2C(=O)N1CCN(C(=O)C2CC2)CC1 | – | inactive: 9.24% |

| SMILES | Potency | max response, negative = inhibition |
| --- | --- | --- |
| CCS(=O)(=O)N1CCc2cc(C(=O)Nc3cc(OC)c(Cl)cc3OC)ccc21 | – | inactive: 4.35% |
| CCN(C(=O)CN1CCN(Cc2ccccc2)CC1)c1c(N)n(Cc2ccccc2)c(=O)[nH]c1=O | inconclusive: 63.1 µM [inhibitor, partial curve, poor fit] | – |
| CCOc1ccc(N2C(=O)C3C(C2=O)C3(c2ccccc2)c2ccccc2)cc1 (stereo not given) | – | inactive: -6.42% |
| Cc1cccc(C(=O)Nc2nnc(S(=O)(=O)N3CCCc4ccccc43)s2)c1 | – | inactive: -11.7% |
| Cc1cnc(CNc2nc(-c3ccoc3)nc3ccccc23)cn1 | inconclusive: 50.1 µM [inhibitor, partial curve] | – |
| COc1ccc(C(=O)CSc2n[nH]c(C)n2)cc1[N+](=O)[O-] | inconclusive: 79.4 µM [inhibitor, partial curve, poor fit] | – |
| Cc1c(C(=O)N/N=C/c2ccncc2)nnn1-c1nonc1N | inconclusive: 50.1 µM [inhibitor, partial curve, poor fit] | – |
| O=[N+]([O-])c1c(Nc2ccccc2O)cc(Cl)c2nonc12 | active: 44.7 µM | – |
| COC(=O)/C=c1/s/c(=C(/C#N)C(=O)N2CCCCC2)n(-c2ccccc2)c1=O | inconclusive: 56.2 µM [inhibitor, single point] | – |
| Cc1cccc(NC(=O)Nc2c(C)n(C)n(-c3ccccc3)c2=O)c1 | inconclusive: 11.2 µM [inhibitor, partial curve, poor fit] | – |
| Cc1cc(=O)n(CC(=O)NC(C)c2ccccc2)c2c1c(C)nn2C (stereo not given) | – | inactive: -2.5% |
| COCCN(CCOC)c1nc(-c2ccc(Cl)cc2)nc2ccccc12 | inconclusive: 39.8 µM [inhibitor, partial curve, poor fit] | – |
| COc1ccc(C(=O)Nc2nc3c(s2)Cc2cc(OC)ccc2-3)cc1 | inconclusive: 63.1 µM [inhibitor, partial curve, poor fit] | – |
| COC1=C(OC)C(=O)c2ccccc2C1=O | active: 35.5 µM | – |
| CCC1(c2ccccc2)NC(=O)N(Cc2ccc(C(=O)OC)cc2)C1=O (stereo not given) | inconclusive: 70.8 µM [inhibitor, partial curve] | – |
| COc1ccc(C(=O)N2CCC3(CCCN(Cc4nccs4)C3)CC2)cc1 | inconclusive: 39.8 µM [inhibitor, partial curve, poor fit] | – |
| C/C=C/C1=CC(=O)C[C@H](c2ccc3c(c2)OCO3)C1 | inconclusive: 56.2 µM [inhibitor, partial curve, poor fit] | – |
| Cc1ccc(S(=O)(=O)CCC(=O)N2CCN(c3ccc([N+](=O)[O-])cc3)CC2)cc1 | active: 25.1 µM | – |
| CN1CCC/C1=C1/C(=O)N(c2ccccc2)N=C1NC(=O)Nc1cccc(Cl)c1 | inconclusive: 31.6 µM [inhibitor, single point] | – |
| Nc1ncnc2oc(-c3ccoc3)c(-c3ccco3)c12 | inconclusive: 100 µM [inhibitor, single point] | – |
| CC1(OC(=O)CCc2ccccc2)C(=O)C=C2C=C(c3ccc(C#N)cc3)N(C3CC3)C=C2C1=O (stereo not given) | inconclusive: 89.1 µM [inhibitor, partial curve, poor fit] | – |

Filtered by structure: those above with a tert-butyl group (two)

| SMILES | Potency | max response, negative = inhibition |
| --- | --- | --- |
| Cc1cccc(C(=O)Nc2nnc(-c3ccc(C(C)(C)C)cc3)s2)c1 | inconclusive: 0.891 µM [inhibitor, full curve, poor fit] | – |
| CC[C@]12c3[nH]c4cc(CCC(=O)N(C)C)ccc4c3CCN1C(=O)[C@@H](CC(=O)NC(C)(C)C)C[C@@H]2C(=O)N1CCN(C(=O)C2CC2)CC1 | – | inactive: 9.24% |
